In the supplement of paper PMC10849652:
The list shows a part of the results.

By UniProt entry, the sequences of proteins in these tests, tags left out. Where a name states a change or a piece, a line headed by the entry shows the natural chain unless it says otherwise.
UniProt Q53H54: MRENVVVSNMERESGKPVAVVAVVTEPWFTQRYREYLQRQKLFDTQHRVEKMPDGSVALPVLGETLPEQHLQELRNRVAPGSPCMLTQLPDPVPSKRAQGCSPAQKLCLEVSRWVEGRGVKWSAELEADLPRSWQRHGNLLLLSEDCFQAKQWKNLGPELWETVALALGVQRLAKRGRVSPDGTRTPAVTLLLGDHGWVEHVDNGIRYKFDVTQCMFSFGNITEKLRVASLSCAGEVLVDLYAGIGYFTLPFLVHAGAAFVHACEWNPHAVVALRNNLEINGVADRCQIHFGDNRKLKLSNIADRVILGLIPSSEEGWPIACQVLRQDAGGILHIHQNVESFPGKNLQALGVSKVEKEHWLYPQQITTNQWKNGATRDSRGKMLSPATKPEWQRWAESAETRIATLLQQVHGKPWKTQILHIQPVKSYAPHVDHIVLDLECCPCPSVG
UniProt Q969E8: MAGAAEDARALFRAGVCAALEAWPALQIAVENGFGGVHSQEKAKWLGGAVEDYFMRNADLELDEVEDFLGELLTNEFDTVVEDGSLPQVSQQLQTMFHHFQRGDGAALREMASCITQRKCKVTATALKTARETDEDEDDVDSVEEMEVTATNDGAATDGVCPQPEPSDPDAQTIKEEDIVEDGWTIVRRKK
UniProt Q8WVT3: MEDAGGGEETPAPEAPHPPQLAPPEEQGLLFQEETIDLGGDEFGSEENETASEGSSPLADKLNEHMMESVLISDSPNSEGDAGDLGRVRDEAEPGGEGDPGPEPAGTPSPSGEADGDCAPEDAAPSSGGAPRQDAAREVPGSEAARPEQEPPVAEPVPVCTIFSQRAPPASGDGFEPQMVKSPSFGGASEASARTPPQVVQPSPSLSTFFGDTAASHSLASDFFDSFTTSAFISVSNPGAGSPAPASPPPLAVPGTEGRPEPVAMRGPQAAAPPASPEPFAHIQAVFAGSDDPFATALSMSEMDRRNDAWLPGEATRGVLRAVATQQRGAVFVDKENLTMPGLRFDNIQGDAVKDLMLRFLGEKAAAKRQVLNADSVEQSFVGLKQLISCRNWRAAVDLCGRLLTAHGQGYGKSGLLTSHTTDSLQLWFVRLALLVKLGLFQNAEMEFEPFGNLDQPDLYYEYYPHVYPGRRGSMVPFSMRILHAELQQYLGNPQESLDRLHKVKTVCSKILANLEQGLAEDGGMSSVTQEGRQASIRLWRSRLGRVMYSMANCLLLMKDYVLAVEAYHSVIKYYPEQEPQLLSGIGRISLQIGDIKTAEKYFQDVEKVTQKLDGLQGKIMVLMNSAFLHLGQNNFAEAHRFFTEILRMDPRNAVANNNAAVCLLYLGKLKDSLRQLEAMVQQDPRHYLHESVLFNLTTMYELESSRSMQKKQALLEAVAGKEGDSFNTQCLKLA
UniProt Q5BVD1: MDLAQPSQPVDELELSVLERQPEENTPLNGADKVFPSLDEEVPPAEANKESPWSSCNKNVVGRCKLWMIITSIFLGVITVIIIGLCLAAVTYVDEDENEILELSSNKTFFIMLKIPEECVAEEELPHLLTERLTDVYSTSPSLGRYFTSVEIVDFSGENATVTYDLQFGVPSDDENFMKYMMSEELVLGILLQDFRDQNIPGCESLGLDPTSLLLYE
UniProt Q9Y3Q8: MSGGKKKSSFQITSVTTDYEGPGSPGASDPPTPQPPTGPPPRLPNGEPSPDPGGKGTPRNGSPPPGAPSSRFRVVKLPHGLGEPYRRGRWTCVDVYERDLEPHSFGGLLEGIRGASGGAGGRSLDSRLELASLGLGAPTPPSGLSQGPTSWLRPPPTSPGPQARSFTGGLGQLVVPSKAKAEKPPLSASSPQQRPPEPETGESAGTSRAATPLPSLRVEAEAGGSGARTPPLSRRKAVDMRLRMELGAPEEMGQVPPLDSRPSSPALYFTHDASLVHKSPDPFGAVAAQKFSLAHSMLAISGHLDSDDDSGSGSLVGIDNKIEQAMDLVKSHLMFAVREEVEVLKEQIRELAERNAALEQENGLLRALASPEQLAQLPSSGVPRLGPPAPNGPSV
UniProt Q8N0Z6: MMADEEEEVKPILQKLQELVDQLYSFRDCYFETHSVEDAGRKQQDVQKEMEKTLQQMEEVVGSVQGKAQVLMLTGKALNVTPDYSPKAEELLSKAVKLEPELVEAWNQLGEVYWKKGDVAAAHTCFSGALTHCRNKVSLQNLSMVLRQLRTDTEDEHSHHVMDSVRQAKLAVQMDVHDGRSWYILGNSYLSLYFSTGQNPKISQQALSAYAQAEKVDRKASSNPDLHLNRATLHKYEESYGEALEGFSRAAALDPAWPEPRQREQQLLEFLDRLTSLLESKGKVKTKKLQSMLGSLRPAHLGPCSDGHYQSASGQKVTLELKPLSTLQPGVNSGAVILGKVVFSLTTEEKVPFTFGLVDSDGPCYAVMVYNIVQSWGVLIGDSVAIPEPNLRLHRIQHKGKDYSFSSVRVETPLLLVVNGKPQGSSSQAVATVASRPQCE
UniProt Q12931: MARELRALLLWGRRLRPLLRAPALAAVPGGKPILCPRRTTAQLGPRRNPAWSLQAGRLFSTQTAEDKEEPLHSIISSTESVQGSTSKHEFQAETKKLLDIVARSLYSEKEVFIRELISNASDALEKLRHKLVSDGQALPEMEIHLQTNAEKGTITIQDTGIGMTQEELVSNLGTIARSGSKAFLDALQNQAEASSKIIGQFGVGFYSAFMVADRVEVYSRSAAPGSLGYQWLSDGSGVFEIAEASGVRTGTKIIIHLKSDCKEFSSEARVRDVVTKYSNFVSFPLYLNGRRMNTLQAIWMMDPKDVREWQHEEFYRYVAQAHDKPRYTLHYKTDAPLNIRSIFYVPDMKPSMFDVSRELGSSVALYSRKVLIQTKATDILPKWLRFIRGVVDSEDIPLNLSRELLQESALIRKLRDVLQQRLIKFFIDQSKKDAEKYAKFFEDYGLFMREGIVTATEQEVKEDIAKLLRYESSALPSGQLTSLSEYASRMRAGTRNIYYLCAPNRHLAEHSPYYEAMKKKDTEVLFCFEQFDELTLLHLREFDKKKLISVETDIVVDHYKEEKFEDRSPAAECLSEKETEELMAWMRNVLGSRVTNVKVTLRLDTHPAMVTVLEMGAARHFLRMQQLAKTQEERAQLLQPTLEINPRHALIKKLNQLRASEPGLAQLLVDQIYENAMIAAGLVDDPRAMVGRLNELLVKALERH
UniProt Q9Y296, whole entry, looked up: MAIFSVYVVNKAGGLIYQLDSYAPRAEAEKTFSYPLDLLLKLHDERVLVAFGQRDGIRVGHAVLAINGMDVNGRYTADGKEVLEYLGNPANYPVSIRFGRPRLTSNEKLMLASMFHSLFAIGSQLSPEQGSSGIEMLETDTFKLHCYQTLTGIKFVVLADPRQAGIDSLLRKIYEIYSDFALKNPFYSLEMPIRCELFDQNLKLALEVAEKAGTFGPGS
UniProt Q9BSV6: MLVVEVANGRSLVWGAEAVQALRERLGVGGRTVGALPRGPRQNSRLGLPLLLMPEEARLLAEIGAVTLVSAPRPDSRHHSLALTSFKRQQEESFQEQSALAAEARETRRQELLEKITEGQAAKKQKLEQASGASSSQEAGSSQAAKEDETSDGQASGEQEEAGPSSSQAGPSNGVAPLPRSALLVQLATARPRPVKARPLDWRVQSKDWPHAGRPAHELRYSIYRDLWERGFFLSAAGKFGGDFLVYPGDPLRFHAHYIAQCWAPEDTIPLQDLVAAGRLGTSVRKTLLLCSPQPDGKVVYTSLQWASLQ
UniProt Q7Z392: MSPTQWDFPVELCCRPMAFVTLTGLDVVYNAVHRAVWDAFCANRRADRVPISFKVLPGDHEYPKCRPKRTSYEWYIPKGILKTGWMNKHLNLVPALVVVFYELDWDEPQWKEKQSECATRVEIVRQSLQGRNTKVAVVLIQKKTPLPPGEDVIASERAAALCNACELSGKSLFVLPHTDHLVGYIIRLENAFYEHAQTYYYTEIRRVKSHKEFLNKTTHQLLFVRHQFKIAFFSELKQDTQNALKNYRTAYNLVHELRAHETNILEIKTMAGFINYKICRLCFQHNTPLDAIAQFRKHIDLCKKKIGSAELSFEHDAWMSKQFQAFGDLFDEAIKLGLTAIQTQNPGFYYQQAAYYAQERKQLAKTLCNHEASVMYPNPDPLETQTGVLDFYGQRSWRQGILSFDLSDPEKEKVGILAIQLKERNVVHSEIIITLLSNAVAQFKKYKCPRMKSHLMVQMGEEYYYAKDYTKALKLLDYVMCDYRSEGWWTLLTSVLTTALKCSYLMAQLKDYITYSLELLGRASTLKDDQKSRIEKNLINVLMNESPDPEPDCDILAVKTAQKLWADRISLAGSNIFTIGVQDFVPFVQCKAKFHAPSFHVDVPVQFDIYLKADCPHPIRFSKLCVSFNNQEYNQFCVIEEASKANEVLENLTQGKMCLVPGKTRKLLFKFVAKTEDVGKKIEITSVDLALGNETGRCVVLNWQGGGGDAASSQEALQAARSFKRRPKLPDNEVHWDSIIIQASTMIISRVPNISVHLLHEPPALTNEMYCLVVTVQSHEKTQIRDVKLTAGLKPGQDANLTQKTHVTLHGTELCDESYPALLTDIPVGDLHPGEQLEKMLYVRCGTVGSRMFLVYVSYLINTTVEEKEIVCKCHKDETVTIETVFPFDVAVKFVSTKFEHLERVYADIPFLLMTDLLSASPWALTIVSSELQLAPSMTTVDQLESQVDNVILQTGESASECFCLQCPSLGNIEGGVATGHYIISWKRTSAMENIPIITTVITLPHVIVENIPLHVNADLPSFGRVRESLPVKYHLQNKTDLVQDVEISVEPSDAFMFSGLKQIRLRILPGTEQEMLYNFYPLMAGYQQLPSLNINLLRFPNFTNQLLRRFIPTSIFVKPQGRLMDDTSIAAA
UniProt P43897: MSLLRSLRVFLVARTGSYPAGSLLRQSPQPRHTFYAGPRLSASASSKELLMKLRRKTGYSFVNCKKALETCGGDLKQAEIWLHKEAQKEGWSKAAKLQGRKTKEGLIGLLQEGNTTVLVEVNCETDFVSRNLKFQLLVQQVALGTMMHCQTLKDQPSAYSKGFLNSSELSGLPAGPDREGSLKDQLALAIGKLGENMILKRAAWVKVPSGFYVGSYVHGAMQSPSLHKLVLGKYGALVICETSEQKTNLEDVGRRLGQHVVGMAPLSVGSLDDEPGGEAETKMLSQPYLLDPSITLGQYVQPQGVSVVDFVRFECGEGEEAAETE
UniProt Q2NL82: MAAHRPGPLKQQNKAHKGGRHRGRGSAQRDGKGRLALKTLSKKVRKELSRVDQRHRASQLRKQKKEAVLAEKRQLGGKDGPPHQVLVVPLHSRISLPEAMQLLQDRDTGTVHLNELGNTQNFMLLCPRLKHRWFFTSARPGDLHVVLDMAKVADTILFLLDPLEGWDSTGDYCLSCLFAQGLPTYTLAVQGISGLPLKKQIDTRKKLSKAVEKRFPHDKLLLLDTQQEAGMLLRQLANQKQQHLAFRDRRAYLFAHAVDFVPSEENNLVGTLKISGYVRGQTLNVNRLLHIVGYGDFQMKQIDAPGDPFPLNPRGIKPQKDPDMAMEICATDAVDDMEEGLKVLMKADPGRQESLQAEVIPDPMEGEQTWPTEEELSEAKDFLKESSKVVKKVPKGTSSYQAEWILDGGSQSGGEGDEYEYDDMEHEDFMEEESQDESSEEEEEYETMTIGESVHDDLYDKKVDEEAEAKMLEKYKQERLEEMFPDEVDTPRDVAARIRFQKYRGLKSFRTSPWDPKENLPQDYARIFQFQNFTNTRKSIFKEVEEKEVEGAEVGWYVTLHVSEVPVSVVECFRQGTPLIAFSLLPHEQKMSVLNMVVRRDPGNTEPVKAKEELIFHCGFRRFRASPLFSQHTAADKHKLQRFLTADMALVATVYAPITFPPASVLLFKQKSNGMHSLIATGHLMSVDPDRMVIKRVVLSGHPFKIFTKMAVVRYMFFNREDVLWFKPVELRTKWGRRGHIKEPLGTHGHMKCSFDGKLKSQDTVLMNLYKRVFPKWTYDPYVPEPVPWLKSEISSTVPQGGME
UniProt O95857: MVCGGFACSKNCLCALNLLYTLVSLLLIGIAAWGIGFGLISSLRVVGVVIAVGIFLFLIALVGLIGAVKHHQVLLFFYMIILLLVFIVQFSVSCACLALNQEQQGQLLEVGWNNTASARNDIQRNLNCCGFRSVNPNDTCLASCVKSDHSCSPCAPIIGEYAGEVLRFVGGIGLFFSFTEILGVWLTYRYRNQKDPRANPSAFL
UniProt Q6DKK2: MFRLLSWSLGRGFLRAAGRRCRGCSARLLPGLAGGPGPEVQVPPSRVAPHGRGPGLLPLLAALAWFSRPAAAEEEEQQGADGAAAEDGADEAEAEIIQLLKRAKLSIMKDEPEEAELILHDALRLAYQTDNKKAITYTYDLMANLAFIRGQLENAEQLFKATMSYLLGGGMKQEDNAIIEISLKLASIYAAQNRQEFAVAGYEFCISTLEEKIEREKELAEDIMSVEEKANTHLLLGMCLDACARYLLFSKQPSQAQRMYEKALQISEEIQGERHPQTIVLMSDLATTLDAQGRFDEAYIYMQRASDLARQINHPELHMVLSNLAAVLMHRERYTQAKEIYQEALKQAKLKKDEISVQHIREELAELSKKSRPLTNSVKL

Tests used:
Assay in all cases: log2 fold change, soluble protein after heating vs DMSO (PISA); higher = thermal stabilisation; K562 lysate, 10 uM; active = over 0.2 and 3.5 SD of the protein, either way, in both replicates (recomputed)
vemurafenib = compound: CCCS(=O)(=O)Nc1ccc(F)c(C(=O)c2c[nH]c3ncc(-c4ccc(Cl)cc4)cc23)c1F [vemurafenib]
Method in brief: (§1)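 Quantification was by TMTpro 16plex LC-MS/MS with equalised channel sums, applied to the supernatant after 21,000xg for 90 min. Samples were crude K562 extract at 1 mg/mL protein in PBS pH 7.4 with 1 mM MgCl2, treated with 10 μM compound for 30 min, heated for 3 min across 48°C-58°C, pooled and brought to 0.5% NP-40 at 4°C. Values are log-two fold changes in thermal stability relative to solvent controls, from duplicates.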

[1] = compound: CCCS(=O)(=O)Nc1ccc(F)c(C(=O)c2c[nH]c3ncc(Cl)cc23)c1F
Method in brief: as §1

barasertib = compound: CCN(CCCOc1ccc2c(Nc3cc(CC(=O)Nc4cccc(F)c4)[nH]n3)ncnc2c1)CCOP(=O)(O)O [barasertib]
Method in brief: as §1

[2] = compound: CC[C@@H]1C(=O)N(C)c2cnc(Nc3ccc(C(=O)NC4CCN(C)CC4)cc3OC)nc2N1C1CCCC1
Method in brief: as §1

volasertib = compound: CC[C@@H]1C(=O)N(C)c2cnc(Nc3ccc(C(=O)N[C@H]4CC[C@H](N5CCN(CC6CC6)CC5)CC4)cc3OC)nc2N1C(C)C [volasertib]
Method in brief: as §1

[3] = compound: CCn1c(C(=O)N(C2CC2)C2CC2)cc2c3c(ncn3C)c(Nc3cc(C)n(C)n3)nc21
Method in brief: as §1

[4] = compound: CCn1cc(-c2ccnc3[nH]c(-c4cccc(CN(C)C)c4)cc23)c(-c2ccc(NC(=O)N(C)C)cc2)n1
Method in brief: as §1

[5] = compound: CN1CCC(CNc2ccc3ncc(-c4cccc(OC(F)(F)F)c4)n3n2)CC1
Method in brief: as §1

saracatinib = compound: CN1CCN(CCOc2cc(OC3CCOCC3)c3c(Nc4c(Cl)ccc5c4OCO5)ncnc3c2)CC1 [saracatinib]
Method in brief: as §1

sotrastaurin = compound: CN1CCN(c2nc(C3=C(c4c[nH]c5ccccc45)C(=O)NC3=O)c3ccccc3n2)CC1 [sotrastaurin]
Method in brief: as §1

alvocidib = compound: CN1CC[C@H](c2c(O)cc(O)c3c(=O)cc(-c4ccccc4Cl)oc23)[C@H](O)C1 [alvocidib]
Method in brief: as §1

Tubastatin A = compound: CN1CCc2c(c3ccccc3n2Cc2ccc(C(=O)NO)cc2)C1 [Tubastatin A]
Method in brief: as §1

[6] = compound: CNC(=O)C1=CC=CC=C1NC2=NC(=NC=C2Cl)NC3=C(C=C(C=C3)N4CCOCC4)OC
Method in brief: as §1

defactinib = compound: CNC(=O)c1ccc(Nc2ncc(C(F)(F)F)c(NCc3nccnc3N(C)S(C)(=O)=O)n2)cc1 [defactinib]
Method in brief: as §1

[7] = compound: CNc1nc(-c2ccc3c(N)n[nH]c3c2)cc(N2C[C@@H](C(=O)NC3CCCCC3)CC[C@H]2C)n1
Method in brief: as §1

encorafenib = compound: COC(=O)N[C@@H](C)CNc1nccc(-c2cn(C(C)C)nc2-c2cc(Cl)cc(NS(C)(=O)=O)c2F)n1 [encorafenib]
Method in brief: as §1

[8] = compound: COC(=O)[C@H](CCSC)NC(=O)C1=C(C=C(C=C1)NC[C@H](CS)N)C2=CC=CC=C2
Method in brief: as §1

alisertib = compound: COc1cc(Nc2ncc3c(n2)-c2ccc(Cl)cc2C(c2c(F)cccc2OC)=NC3)ccc1C(=O)O [alisertib]
Method in brief: as §1

[9] = compound: COc1cc2nc(-c3cc(F)ccc3O)nc(N[C@@H]3CNC[C@H]3C(C)(C)O)c2cc1OC
Method in brief: as §1

gefitinib = compound: COc1cc2ncnc(Nc3ccc(F)c(Cl)c3)c2cc1OCCCN1CCOCC1 [gefitinib]
Method in brief: as §1

Row | Target | log2 fold change (vemurafenib) | log2 fold change [1] | log2 fold change (barasertib) | log2 fold change [2] | log2 fold change (volasertib) | log2 fold change [3] | log2 fold change [4] | log2 fold change [5] | log2 fold change (saracatinib) | log2 fold change (sotrastaurin) | log2 fold change (alvocidib) | log2 fold change (Tubastatin A) | log2 fold change [6] | log2 fold change (defactinib) | log2 fold change [7] | log2 fold change (encorafenib) | log2 fold change [8] | log2 fold change (alisertib) | log2 fold change [9] | log2 fold change (gefitinib)
1 | TRMT12 (UniProt Q53H54) | inactive: 0.059 | inactive: -0.009 | inactive: 0.068 | inactive: -0.17 | inactive: -0.052 | inactive: 0.047 | inactive: -0.303 | inactive: 0.281 | inactive: -0.021 | inactive: -0.047 | inactive: -0.022 | inactive: -0.106 | inactive: -0.113 | inactive: -0.058 | inactive: 0.007 | inactive: 0.041 | inactive: 0.088 | inactive: -0.031 | inactive: 0.018 | inactive: 0.123
2 | TRUB1 (UniProt Q8WWH5) | inactive: -0.029 | inactive: 0.002 | inactive: 0.029 | inactive: -0.015 | inactive: 0.008 | inactive: 0.076 | inactive: -0.084 | inactive: 0.082 | inactive: 0.022 | inactive: -0.001 | inactive: 0.018 | inactive: -0.012 | inactive: 0.037 | inactive: -0.017 | inactive: 0.002 | inactive: -0.015 | inactive: 0.08 | inactive: 0.02 | inactive: -0.103 | inactive: -0.063
3 | TRAF4 (UniProt Q9BUZ4) | inactive: -0.174 | inactive: 0.18 | inactive: 0.023 | inactive: 0.068 | inactive: 0.061 | inactive: 0.009 | inactive: 0.155 | inactive: -0.035 | inactive: -0.079 | inactive: -0.068 | inactive: 0.151 | inactive: 0 | inactive: 0.049 | inactive: 0.201 | inactive: 0.053 | inactive: -0.029 | inactive: -0.047 | inactive: -0.007 | inactive: 0.154 | inactive: -0.054
4 | TSR2 (UniProt Q969E8) | inactive: 0.017 | inactive: 0.004 | inactive: -0.07 | inactive: 0.041 | inactive: 0.008 | inactive: -0.067 | inactive: -0.045 | inactive: 0.016 | inactive: 0.012 | inactive: 0.001 | inactive: 0.054 | inactive: 0.012 | inactive: 0.004 | inactive: 0.035 | inactive: 0.054 | inactive: 0.025 | inactive: -0.01 | inactive: 0.035 | inactive: -0.011 | inactive: -0.037
5 | TRAPPC12 (UniProt Q8WVT3) | inactive: 0.039 | inactive: -0.001 | inactive: -0.007 | inactive: 0.047 | inactive: -0.083 | inactive: -0.03 | inactive: -0.027 | inactive: -0.009 | inactive: 0.028 | inactive: -0.003 | inactive: -0.009 | inactive: -0.079 | inactive: 0.063 | inactive: 0.002 | inactive: -0.039 | inactive: 0.065 | inactive: 0.057 | inactive: 0.034 | inactive: 0.01 | inactive: 0.022
6 | TTMP isoform 3 (UniProt Q5BVD1) | inactive: 0.227 | inactive: 0.029 | inactive: -0.025 | inactive: 0.122 | inactive: 0.031 | inactive: -0.182 | active: -0.88 | inactive: 0.316 | inactive: 0.012 | inactive: -0.029 | inactive: -0.347 | inactive: 0.24 | inactive: -0.105 | inactive: -0.088 | inactive: 0.36 | inactive: -0.06 | inactive: 0.06 | inactive: 0.119 | inactive: 0.129 | inactive: 0.02
7 | TSC22D4 (UniProt Q9Y3Q8) | inactive: 0.016 | inactive: 0.016 | inactive: -0.063 | inactive: 0.038 | inactive: -0.01 | inactive: -0.015 | inactive: -0.027 | inactive: -0.012 | inactive: 0.016 | inactive: 0.019 | inactive: -0.015 | inactive: 0.012 | inactive: -0.002 | inactive: 0.001 | inactive: 0.015 | inactive: -0.004 | inactive: -0.006 | inactive: -0.015 | inactive: 0.011 | inactive: -0.015
8 | TTC5 (UniProt Q8N0Z6) | inactive: 0.016 | inactive: 0.017 | inactive: -0.014 | inactive: -0.03 | inactive: -0.014 | inactive: 0.018 | inactive: -0.111 | inactive: 0.054 | inactive: 0.005 | inactive: 0.007 | inactive: -0.006 | inactive: -0.092 | inactive: -0.017 | inactive: -0.017 | inactive: -0.02 | inactive: -0.021 | inactive: 0.057 | inactive: -0.036 | inactive: -0.01 | inactive: 0.091
9 | TRAP1 (UniProt Q12931) | inactive: -0.031 | inactive: -0.018 | inactive: 0.005 | inactive: -0.092 | inactive: -0.005 | inactive: 0.019 | inactive: 0 | inactive: -0.013 | inactive: 0 | inactive: -0.007 | inactive: 0.018 | inactive: 0.006 | inactive: -0.029 | inactive: -0.016 | inactive: -0.079 | inactive: -0.018 | inactive: -0.005 | inactive: 0.01 | inactive: -0.003 | inactive: -0.008
10 | TRAPPC4 (UniProt Q9Y296) | inactive: -0.047 | inactive: -0.013 | inactive: 0.021 | inactive: 0.019 | inactive: -0.038 | inactive: 0.043 | inactive: 0.045 | inactive: -0.159 | inactive: -0.016 | inactive: 0.042 | inactive: 0.007 | inactive: -0.011 | inactive: 0.012 | inactive: -0.019 | inactive: -0.031 | inactive: 0.048 | inactive: 0.011 | inactive: -0.029 | inactive: -0.025 | inactive: 0.017
11 | TSEN34 (UniProt Q9BSV6) | inactive: -0.044 | inactive: -0.007 | inactive: 0.053 | inactive: -0.015 | inactive: -0.035 | inactive: 0.043 | inactive: -0.012 | inactive: -0.016 | inactive: -0.003 | inactive: -0.017 | inactive: -0.026 | inactive: -0.005 | inactive: -0.014 | inactive: -0.061 | inactive: 0.045 | inactive: 0.033 | inactive: 0.059 | inactive: -0.041 | inactive: 0.009 | inactive: -0.007
12 | TRAPPC11 (UniProt Q7Z392) | inactive: -0.008 | inactive: 0.024 | inactive: 0.061 | inactive: -0.001 | inactive: -0.063 | inactive: -0.003 | inactive: -0.086 | inactive: 0.016 | inactive: 0.009 | inactive: -0.014 | inactive: -0.018 | inactive: -0.05 | inactive: -0.004 | inactive: -0.011 | inactive: -0.034 | inactive: 0.013 | inactive: 0.002 | inactive: -0.047 | inactive: 0.001 | inactive: 0.036
13 | TSFM (UniProt P43897) | inactive: -0.007 | inactive: 0.005 | inactive: 0.031 | inactive: -0.041 | inactive: -0.089 | inactive: 0.006 | inactive: 0.081 | inactive: -0.05 | inactive: -0.014 | inactive: -0.012 | inactive: 0.036 | inactive: -0.088 | inactive: 0.017 | inactive: 0.015 | inactive: 0.01 | inactive: -0.017 | inactive: 0.13 | inactive: -0.021 | inactive: 0.017 | inactive: 0.018
14 | TSR1 (UniProt Q2NL82) | inactive: 0.032 | inactive: 0.022 | inactive: 0.023 | inactive: -0.033 | inactive: -0.039 | inactive: -0.003 | inactive: 0.048 | inactive: -0.051 | inactive: 0.012 | inactive: 0.025 | inactive: 0.044 | inactive: -0.077 | inactive: 0.018 | inactive: 0.034 | inactive: -0.02 | inactive: 0.015 | inactive: 0.121 | inactive: -0.019 | inactive: -0.003 | inactive: -0.049
15 | TSPAN13 (UniProt O95857) | inactive: -0.032 | inactive: -0.03 | inactive: -0.033 | inactive: 0.177 | inactive: 0.032 | inactive: 0.046 | inactive: 0.114 | inactive: 0.059 | inactive: 0.134 | inactive: -0.154 | inactive: -0.26 | inactive: 0.046 | inactive: -0.042 | inactive: 0.017 | inactive: 0.299 | inactive: -0.007 | inactive: 0.049 | inactive: 0.003 | inactive: 0.043 | inactive: -0.003
16 | TTC19 (UniProt Q6DKK2) | inactive: 0.013 | inactive: 0.008 | inactive: 0.047 | inactive: 0.052 | inactive: 0.021 | inactive: -0.008 | inactive: -0.161 | inactive: 0.028 | inactive: 0.034 | inactive: 0.016 | inactive: -0.014 | inactive: -0.024 | inactive: -0.009 | inactive: -0.088 | inactive: -0.046 | inactive: 0.006 | inactive: 0.049 | inactive: -0.035 | inactive: -0.052 | inactive: 0.025
